Measured values reported in PubChem BioAssay AID2685 (National Center for Advancing Translational Sciences (NCATS), 2010).
Some of the results follow. The main result of the screen is listed elsewhere. These columns were measured beside it and carry no call. The list favours compounds with an active or inconclusive main result. Words in brackets tell the shape of the fitted curve; partial curves, single points and poor fits give uncertain potencies.

Assay: qHTS Assay for Lipid Storage Modulators in Drosophila S3 Cells;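 on cell number change: cells counted by Cell Tracker Red CMTPX staining in the red channel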
Conditions: BODIPY lipid droplet fluorescence, 18-24 h; for cell number change: measured here: cell count max response, cells fed with added oleic acid
How it was run: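 Laser-scanning cytometry quantifies lipid droplet accumulation (500–530 nm total intensity; droplet/cell object ratio) in oleic acid-fed (400 uM added) Drosophila S3 cells treated with a concentration series. 20 uM Triacsin C defined 100% inhibition.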

[1] = measured here: lipid fluorescence (Fed channel) AC50, cells fed with added oleic acid
[2] = measured here: cell number channel AC50, cells fed with added oleic acid

SMILES | AC50 [1] | cell number change [%] | AC50 [2]
O=C(N/N=C/c1c(O)n(-c2ccccc2)c(=O)[nH]c1=O)c1ccncc1 | 29.1 µM [falling, single point] |  | 
CC(=NC1CCN(Cc2ccccc2)CC1)c1c(O)n(C)c(=O)n(C)c1=O | 0.103 µM [falling, partial curve, poor fit] |  | 
Cc1cc(S(=O)(=O)NC(C)C)ccc1OCC(=O)N1CCN(Cc2ccc3c(c2)OCO3)CC1 | 13 µM [falling, partial curve] | -40.9 | 8.2 µM [falling, partial curve]
COc1cc2c(cc1C=O)OCO2 | 23.1 µM [rising, single point] | 33.7 | 16.4 µM [rising, single point]
CC1(C)C2CC=C(CN3CCC(O)CC3)C1C2 (centres undefined) | 0.259 µM [falling, full curve] | -32.3 | 
C=CCNC(=S)/N=C/c1c(O)[nH]c(=O)[nH]c1=O |  | 128 | 
CCC(C)N1C(=O)NC(=O)C2(Cc3c(ccc4ccccc34)N(C)C2)C1=O (centres undefined) |  | 11.9 | 0.0058 µM [rising, full curve, poor fit]
C=CCn1c(O)c(C(CC)=Nc2ccccc2NC(C)=O)c(=O)[nH]c1=O | 0.461 µM [falling, partial curve] | -15.9 | 0.146 µM [falling, full curve]
CCOC(=O)C1CCCN(c2ccc([N+](=O)[O-])c3nonc23)C1 (centres undefined) | 0.82 µM [falling, full curve, poor fit] | -59.2 | 1.03 µM [falling, full curve]
Cc1cc(C(=O)OCC(=O)Nc2c(F)cccc2F)c(C)n1C1CC1 | 16.4 µM [rising, partial curve] | 0.855 | 
COC(=O)C1=C(c2ccc(-c3ccccc3)c(F)c2)C[C@@H]2CC[C@H]1N2C(=O)N1CCCCC1 | 13 µM [falling, partial curve] | -34.1 | 11.6 µM [falling, partial curve]
O=C1/C(=C/c2cc([N+](=O)[O-])ccc2Cl)N2CCC1CC2 |  | -19.5 | 
COCCNC(=O)Cn1cc(C(=O)c2ccccc2F)c2ccccc21 | 6.51 µM [rising, single point] | 14.1 | 
CCC(=O)O[C@@H]1[C@@H](OC(C)=O)[C@@]2(O)C(C[C@H](O)C2(C)C)[C@](C)(O)[C@H]2CC[C@@H]3[C@@H](O)[C@]12C[C@@]3(C)O (some centres undefined) | 4.61 µM [falling, full curve] | -29.3 | 
CN(C)CC#CCn1c2ccccc2c2ccccc21 | 20.6 µM [rising, single point] | -3.04 | 
COC(=O)C(O)(c1ccc(N(C)C(=O)COc2ccccc2)cc1)C(F)(F)F (centres undefined) | 32.6 µM [rising, single point] | 14.9 | 
COc1ccc(CCNCc2sccc2C)cc1 |  | 15.5 | 3.66 µM [rising, partial curve]
COc1ccccc1Oc1c(C)oc2cc(OC(=O)N(C)C)ccc2c1=O | 14.6 µM [rising, single point] | 20.4 | 
Fc1ccccc1CCNCc1ccccc1 | 11.6 µM [falling, partial curve] | -35.7 | 14.6 µM [falling, partial curve]
Cc1ccc(C)c(OCC(=O)N2CCN(Cc3ccc4c(c3)OCO4)CC2)c1 | 13 µM [falling, partial curve] | -10.9 | 

SMILES | AC50 [1] | cell number change [%] | AC50 [2]
CN(C)C(=O)Oc1ccc(OC(=O)c2ccccc2)cc1 |  | 61.8 | 18.4 µM [rising, single point]
CCc1nc(N2CCNCC2)c(C#N)c2c1CSC(C)(C)C2 |  | 1.12 | 
COC(=O)CCCNC(=O)CN1CC(c2ccccc2)CC1=O (centres undefined) | 0.13 µM [falling, full curve, poor fit] | -18.9 | 0.651 µM [falling, full curve, poor fit]
CCCC(=O)OCC[N+](C)(C)C | 1.3 µM [falling, full curve, poor fit] | -17.6 | 
CCN(CC)S(=O)(=O)c1cccc(N=Nc2c(O)n(CC)c(=S)n(CC)c2=O)c1 |  | 5.15 | 6.51 µM [rising, single point]
CCN(CC)C(=O)Cn1cc(/C=C2\C(=O)NC(=O)N(c3ccccc3F)C2=O)c2ccccc21 | 14.6 µM [falling, single point] | -19.8 | 
CCCCn1c(O)c(C=NCc2ccc3c(c2)OCO3)c(=O)[nH]c1=O | 16.4 µM [falling, single point] | -34.5 | 14.6 µM [falling, single point]
c1ccc2c(CNC3CCCCC3)c[nH]c2c1 | 0.651 µM [rising, single point] | 49.6 | 29.1 µM [rising, single point]
CCn1nc(-c2cccs2)nc2c(=O)n(C)c(=O)nc1-2 | 20.6 µM [falling, single point] | -35.6 | 29.1 µM [falling, single point]
CCC(CO)NC(=O)C1C=C2c3cccc4[nH]cc(c34)CC2N(C)C1 (centres undefined) |  | 1.72 | 
Cc1ccc(S(=O)(=O)N(c2cc(Cl)c(O)c(Cl)c2)P(=O)(OC(C)C)OC(C)C)cc1 | 0.13 µM [rising, partial curve, poor fit] |  | 
CCc1ccccc1NC(=O)CN1CCN(C(=O)COc2ccccc2C#N)CC1 |  | -16.7 | 
N=c1sc2c(n1Cc1ccccc1)CCCC2 | 23.1 µM [falling, single point] | -11.9 | 
CCN(CC)c1ccc(N=Cc2c(O)n(-c3ccccc3C)c(=O)[nH]c2=O)cc1 |  |  | 0.146 µM [rising, full curve, poor fit]
O=c1c2ccccc2nc(/C=C/c2ccc(O)cc2)n1-c1cccc(O)c1 |  | 4.4 | 
COC(=O)C1=C(c2ccc(C(C)=O)cc2)C[C@@H]2CC[C@H]1N2C(=O)NCCOc1ccccc1Cl | 1.3 µM [rising, single point] | -26.1 | 
COc1ccc(-n2c(SCCN(C)C)nc3ccccc3c2=O)cc1 | 0.0731 µM [rising, full curve, poor fit] | -5.76 | 
CNC(C)(C)Cc1ccccc1 | 0.206 µM [falling, full curve, poor fit] | -16.2 | 
COC1C(OC(=O)c2ccc(C)[nH]2)C(O)C(Oc2ccc3c(O)c(NC(=O)c4ccc(O)c(CC=C(C)C)c4)c(=O)oc3c2Cl)OC1(C)C (centres undefined) | 29.1 µM [falling, single point] | -16.1 | 
CCCCn1c(=O)c(C=Nc2ccc(Cl)cc2)c(O)n(Cc2ccco2)c1=O | 16.4 µM [rising, partial curve] | 45.4 | 14.6 µM [rising, partial curve]

Compounds shown so far with a thiophene ring, fused or not, in the order listed:
SMILES | AC50 [1] | cell number change [%] | AC50 [2]
COc1ccc(CCNCc2sccc2C)cc1 |  | 15.5 | 3.66 µM [rising, partial curve]
CCn1nc(-c2cccs2)nc2c(=O)n(C)c(=O)nc1-2 | 20.6 µM [falling, single point] | -35.6 | 29.1 µM [falling, single point]

Continuation:

SMILES | AC50 [1] | cell number change [%] | AC50 [2]
CC[N+](CC)(CC)CCOc1cccc(OCC[N+](CC)(CC)CC)c1OCC[N+](CC)(CC)CC |  |  | 1.84 µM [falling, full curve, poor fit]
O=C1NC(=O)N(CC2CCCO2)C(=O)/C1=C/c1cccs1 (centres undefined) |  | 3.98 | 
COC(=O)C1=C(c2ccc(OC)c(OC)c2)C[C@@H]2CC[C@H]1N2C(=O)N1CCC(C)CC1 | 25.9 µM [falling, single point] | -14.7 | 
O=S1(=O)CCN(CCc2c[nH]c3ccccc23)CC1 | 3.26 µM [rising, single point] | 7.27 | 
CCCCn1c(NS(=O)(=O)c2ccccc2)c(C(=O)OCC)c2nc3ccccc3nc21 | 4.61 µM [falling, single point] | -11 | 
COc1cc2c(cc1OC)CN(c1ccc([N+](=O)[O-])c(C(F)(F)F)c1)CC2 |  | -22.3 | 
CCOc1cc(CNCCc2c[nH]c3ccccc23)cc(Cl)c1OCC | 29.1 µM [falling, single point] | -78.9 | 8.2 µM [falling, partial curve]
CC(=NCc1ccco1)c1c(O)n(Cc2ccccc2)c(=O)[nH]c1=O | 20.6 µM [rising, single point] | 23 | 3.66 µM [rising, full curve, poor fit]
CCOC(=O)C(O)(c1ccc(N=c2ccccn2C)cc1)C(F)(F)F (centres undefined) | 5.8 µM [rising, full curve] | 10.9 | 
CCN1C(=O)c2ccccc2Sc2ccc(C(=O)N3CCC4(CC3)OCCO4)cc21 |  | -20.6 | 0.164 µM [falling, full curve, poor fit]
COc1ccc(CC2C(=O)N(c3ccccc3)C(=O)N(c3ccccc3)C2=O)c(OC)c1 |  | -18.4 | 6.51 µM [falling, single point]
CCOP(=O)(OCC)c1nc(-c2ccc(Cl)cc2)oc1NCc1ccccc1 |  |  | 1.16 µM [falling, partial curve, poor fit]
CCOc1cc2c(cc1OCC)-n1cccc1C(c1ccccc1OC)NC2 (centres undefined) | 29.1 µM [rising, single point] | 4.23 | 
CCOC(=O)CC(NC(=O)C(Cc1ccc(N(CCCl)CCCl)cc1)NC(C)=O)C(=O)OCC (centres undefined) | 29.1 µM [falling, single point] | -18.8 | 
CCN(CC)CCOC(=O)C(O)(c1ccccc1)c1ccccc1 | 16.4 µM [rising, single point] | 1.75 | 
COc1ccc(OC)c(C(O)C2CCCCN2)c1 (centres undefined) | 3.26 µM [rising, single point] | 1.47 | 
Cn1cccc1/C=C1/C(=O)NC(=S)N(Cc2ccc(F)cc2)C1=O |  | 50.1 | 25.9 µM [rising, single point]
COc1ccc(CC2C(=O)NC(=O)NC2=O)c(OC)c1 |  | 0.437 | 
